The target in this assay is leucine-rich repeat kinase 2 (LRRK2) (UniProt Q5S007). Briefly: pull-down; GST pulldown assay, in vitro (fig. S2G); which partner bore GST is not told in the text shown.

By UniProt entry, the sequences of proteins in these tests, tags left out. Where a name states a change or a piece, a line headed by the entry shows the natural chain unless it says otherwise.
UniProt Q5S007: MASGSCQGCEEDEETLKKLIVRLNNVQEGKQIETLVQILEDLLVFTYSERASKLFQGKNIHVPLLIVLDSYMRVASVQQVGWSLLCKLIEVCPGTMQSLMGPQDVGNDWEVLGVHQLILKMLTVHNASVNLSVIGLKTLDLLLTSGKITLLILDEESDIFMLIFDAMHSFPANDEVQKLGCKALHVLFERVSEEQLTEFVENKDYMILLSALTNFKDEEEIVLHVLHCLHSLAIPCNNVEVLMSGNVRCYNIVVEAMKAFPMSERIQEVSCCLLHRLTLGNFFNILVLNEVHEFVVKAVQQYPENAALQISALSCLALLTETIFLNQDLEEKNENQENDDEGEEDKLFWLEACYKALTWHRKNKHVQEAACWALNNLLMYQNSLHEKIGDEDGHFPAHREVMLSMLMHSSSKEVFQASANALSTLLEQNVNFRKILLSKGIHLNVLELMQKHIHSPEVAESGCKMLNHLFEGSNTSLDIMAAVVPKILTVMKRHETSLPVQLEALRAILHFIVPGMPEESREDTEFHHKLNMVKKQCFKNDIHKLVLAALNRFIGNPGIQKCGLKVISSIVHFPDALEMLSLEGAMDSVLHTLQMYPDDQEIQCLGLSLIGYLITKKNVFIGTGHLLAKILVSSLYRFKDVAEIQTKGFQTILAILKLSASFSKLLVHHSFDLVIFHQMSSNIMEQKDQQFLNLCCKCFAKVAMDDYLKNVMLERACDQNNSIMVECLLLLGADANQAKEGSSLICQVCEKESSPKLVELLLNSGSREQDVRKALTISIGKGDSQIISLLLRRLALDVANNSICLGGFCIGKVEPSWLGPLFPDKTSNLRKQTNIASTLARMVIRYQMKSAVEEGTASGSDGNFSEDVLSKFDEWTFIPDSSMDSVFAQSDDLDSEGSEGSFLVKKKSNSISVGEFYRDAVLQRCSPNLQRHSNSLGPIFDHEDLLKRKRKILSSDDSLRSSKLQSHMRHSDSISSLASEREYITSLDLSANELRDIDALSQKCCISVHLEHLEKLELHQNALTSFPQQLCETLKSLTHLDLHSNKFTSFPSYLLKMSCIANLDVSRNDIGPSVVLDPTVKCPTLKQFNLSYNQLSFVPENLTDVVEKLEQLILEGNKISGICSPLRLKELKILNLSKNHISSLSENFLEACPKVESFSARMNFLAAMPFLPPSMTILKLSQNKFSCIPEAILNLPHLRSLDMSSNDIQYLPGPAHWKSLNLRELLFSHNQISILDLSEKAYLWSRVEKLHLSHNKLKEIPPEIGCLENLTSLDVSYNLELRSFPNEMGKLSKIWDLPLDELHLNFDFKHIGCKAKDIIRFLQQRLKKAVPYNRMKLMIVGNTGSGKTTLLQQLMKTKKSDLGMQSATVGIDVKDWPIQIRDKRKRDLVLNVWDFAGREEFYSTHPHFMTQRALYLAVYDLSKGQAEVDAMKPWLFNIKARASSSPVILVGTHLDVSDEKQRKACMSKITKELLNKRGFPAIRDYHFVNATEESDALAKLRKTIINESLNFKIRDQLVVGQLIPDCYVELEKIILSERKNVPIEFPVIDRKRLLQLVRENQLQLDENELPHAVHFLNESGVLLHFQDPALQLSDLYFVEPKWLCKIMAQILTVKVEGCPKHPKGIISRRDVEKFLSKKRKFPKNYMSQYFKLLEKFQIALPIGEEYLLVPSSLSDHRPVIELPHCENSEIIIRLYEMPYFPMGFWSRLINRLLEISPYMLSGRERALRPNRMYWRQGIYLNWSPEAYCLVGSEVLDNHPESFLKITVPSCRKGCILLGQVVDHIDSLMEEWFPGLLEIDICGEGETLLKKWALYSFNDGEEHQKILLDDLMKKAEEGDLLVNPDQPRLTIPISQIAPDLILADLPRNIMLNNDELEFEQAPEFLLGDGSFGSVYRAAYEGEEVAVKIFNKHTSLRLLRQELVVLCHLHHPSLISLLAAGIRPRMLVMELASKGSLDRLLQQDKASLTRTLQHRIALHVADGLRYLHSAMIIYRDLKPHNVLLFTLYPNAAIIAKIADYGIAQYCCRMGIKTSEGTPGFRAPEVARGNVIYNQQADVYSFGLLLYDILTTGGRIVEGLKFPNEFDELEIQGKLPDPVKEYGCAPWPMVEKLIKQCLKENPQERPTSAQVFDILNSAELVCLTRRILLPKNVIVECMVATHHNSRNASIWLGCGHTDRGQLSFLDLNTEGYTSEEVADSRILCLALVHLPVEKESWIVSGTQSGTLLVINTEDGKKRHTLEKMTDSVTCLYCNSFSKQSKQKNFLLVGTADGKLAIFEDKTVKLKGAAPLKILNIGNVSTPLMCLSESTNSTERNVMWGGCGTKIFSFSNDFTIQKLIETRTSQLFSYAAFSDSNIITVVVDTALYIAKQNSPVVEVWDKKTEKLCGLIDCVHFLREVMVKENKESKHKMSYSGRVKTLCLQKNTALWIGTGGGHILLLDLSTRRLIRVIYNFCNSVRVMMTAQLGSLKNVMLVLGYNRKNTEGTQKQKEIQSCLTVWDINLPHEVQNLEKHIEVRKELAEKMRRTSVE
UniProt O14966: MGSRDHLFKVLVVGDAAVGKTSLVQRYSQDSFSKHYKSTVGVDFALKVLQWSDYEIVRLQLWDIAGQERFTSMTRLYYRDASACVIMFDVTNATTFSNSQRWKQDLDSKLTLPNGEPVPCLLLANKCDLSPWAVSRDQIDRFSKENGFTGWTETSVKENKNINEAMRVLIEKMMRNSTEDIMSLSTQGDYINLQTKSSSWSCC

These are yes or no findings as the source states them, for the method shown. Binding seen in cells or lysates may run through a third protein. A result given as binding can be weak or reduced; the word gives no strength.

Turning to Rab29 L7Q (from UniProt O14966), the binding result was “binds”.
For Rab29 L76M (from UniProt O14966) the value was “binds”.

The values above are taken from article PMC10786121, “Rab29-dependent asymmetrical activation of leucine-rich repeat kinase 2” (Science (New York, N.Y.), 2023).
